Some of the results follow.

The chains behind the UniProt entries cited, without tags or fusion partners.
UniProt Q0JBA9, entry or part of it: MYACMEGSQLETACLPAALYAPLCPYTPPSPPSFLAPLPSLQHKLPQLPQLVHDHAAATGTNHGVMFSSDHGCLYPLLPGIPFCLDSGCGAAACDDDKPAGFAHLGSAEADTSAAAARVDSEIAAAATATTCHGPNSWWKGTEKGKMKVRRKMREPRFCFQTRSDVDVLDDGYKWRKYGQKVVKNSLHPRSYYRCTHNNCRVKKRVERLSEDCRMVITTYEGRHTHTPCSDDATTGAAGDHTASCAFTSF

The test has as its target OsWRKY34 (Oryza sativa, UniProt Q0JBA9 1-250). The experiment in a line: protein-binding microarray (RPBM); PBS, 2% BSA, 51.3 ng/ul salmon testes DNA, 50 uM zinc acetate, 200 nM TF, 25 C, 1 h; high values mean tight binding. Conditions: protein: recombinant; tags: N-terminal polyhistidine and DsRed monomer fusion (pET32a); label: CyDye5-dUTP incorporated in the synthesized complementary strand; 3' TTTTT single-stranded linker to array surface; dsDNA, one strand shown. An outline of the steps: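 For the binding signal, per-feature fluorescence intensity was read in arbitrary units on an Axon 4000B scanner. Before scanning, a 2% BSA-blocked custom Agilent array made double-stranded with Cy5-dUTP was washed after 1 h at 25 °C with 200 nM protein and 50 µM zinc acetate. The proteins were Ni–NTA-purified transcription factors with N-terminal polyhistidine and DsRed fusions, expressed in E. coli BL21-CodonPlus.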
In the case of “GCCCAACCCGCCCGTGAGGTGACTCTGCCACTGGGTTTTTCGGAGTCACCTAGTGCAG”, the binding signal was 9540 fluorescence intensity (a.u.).

Regarding “TGGTGTTGTTTATGTTCTCTATATCGATGAAAGATGTTAACGGAGTCACCTAGTGCAG”, the binding signal is 9980 fluorescence intensity (a.u.). The same measure for “GCATGTCCTTTTTCCGATCGCAATATCCAAACGCTCCACTCGGAGTCACCTAGTGCAG”: 9390 fluorescence intensity (a.u.); for “CTCACTTCAGCTCGCTCGCTCTCACTACTACTCGCTGGCACGGAGTCACCTAGTGCAG”: 9950 fluorescence intensity (a.u.); for “CGTCTACCTCTAGCTCTCTGTGAGTTGCCATTAGGATTTTCGGAGTCACCTAGTGCAG”: 9570 fluorescence intensity (a.u.). Regarding “ATCTCTTCCCGTCTTTCTCGACAAATTTGGGATTATGCCACGGAGTCACCTAGTGCAG”, the binding signal is 8250 fluorescence intensity (a.u.). Regarding “GGGTACGACTTATCTGATGGTGAAATTTTCCTTTTTCTAACGGAGTCACCTAGTGCAG”, the binding signal is 8890 fluorescence intensity (a.u.). Turning to “GCTTCGAGGGGAGGGGCTCTAGCGGTTCTGGTTGAGGAAGCGGAGTCACCTAGTGCAG”, the binding signal was 12100 fluorescence intensity (a.u.). Consider “AAAAATGTGGGAGGATGTATGTATGTGTGGAGGAGGGGTACGGAGTCACCTAGTGCAG”, for which the binding signal is 11200 fluorescence intensity (a.u.). In the case of “CCGCCTGCGTACGCCCATCTCCTCCACCCCACGCGCGAGCCGGAGTCACCTAGTGCAG”, the binding signal was 10500 fluorescence intensity (a.u.).

Consider “ATATTACCCTATCCTTTTTTTCCCAATAAAGTCTATGTCCCGGAGTCACCTAGTGCAG”, for which the binding signal is 8660 fluorescence intensity (a.u.).

Take “CCTTGTATTCGGCCCGCACACGCCAACCTGTCCTGTTCTGCGGAGTCACCTAGTGCAG”: the binding signal is 9600 fluorescence intensity (a.u.). The same measure for “TTATTGTGCTAGCTGCATGCTGTTTTTAATCATCGTAATTCGGAGTCACCTAGTGCAG”: 9780 fluorescence intensity (a.u.); for “GGCGGGGCCTTCTTCGCGGTGGCGTCCCTTCTCAGGCGCGCGGAGTCACCTAGTGCAG”: 14300 fluorescence intensity (a.u.). The same measure for “CTACTATCATATTTTTTAATAGATGACTCCGTTGACTTTTCGGAGTCACCTAGTGCAG”: 16800 fluorescence intensity (a.u.); for “AATTTCATTAACACCACTTCAGGTTGGCAGGACATGCACTCGGAGTCACCTAGTGCAG”: 8250 fluorescence intensity (a.u.); for “GGCTTTGATGTTTGGTTTCTGATTCCTGAGCTGTACCGATCGGAGTCACCTAGTGCAG”: 9190 fluorescence intensity (a.u.). The same measure for “CTTCTTGGTTGCTGTATCAGAAATTCTGCTTCATTGTGTTCGGAGTCACCTAGTGCAG”: 8510 fluorescence intensity (a.u.); for “CTTTTTTTTATTTGGTGCTCTTTGGAGATGTTGTGACAGTCGGAGTCACCTAGTGCAG”: 8190 fluorescence intensity (a.u.). Take “AACGATCTTTTCTCTATCCTTTTTTTCGCCGTCGTTAACTCGGAGTCACCTAGTGCAG”: the binding signal is 9920 fluorescence intensity (a.u.). Turning to “ATAGCCTGACTGGAATTCTTTCTGATTTTTTGTTCAAATTCGGAGTCACCTAGTGCAG”, the binding signal was 11100 fluorescence intensity (a.u.). Turning to “GCCCTCACGCCCGGCCGGCCACTCCGCCCCGCGCCGTCTGCGGAGTCACCTAGTGCAG”, the binding signal was 9840 fluorescence intensity (a.u.). The same measure for “ACGAAAGTGGAGGGCAAGTTCGAAAGTGGAGGGCAATTAACGGAGTCACCTAGTGCAG”: 8280 fluorescence intensity (a.u.); for “GGCTCGTCGGAGTAGGGGCGCTCGGGGTATGGGGCTCGGCCGGAGTCACCTAGTGCAG”: 20400 fluorescence intensity (a.u.). The same measure for “GTTTGACTCTTGAGGAAGCTGCATCCTTTAGGCCTCTCATCGGAGTCACCTAGTGCAG”: 8860 fluorescence intensity (a.u.); for “TCACATCACATCTCACTTTTTTTTTGGGGCTTCCTGGATTCGGAGTCACCTAGTGCAG”: 11600 fluorescence intensity (a.u.); for “TACACTAACCCTACCATCCCGTACACCACCGAAACCCTAACGGAGTCACCTAGTGCAG”: 8330 fluorescence intensity (a.u.). Then “GTCAACTACAACATTTGACCGTCCGATTTTTTTTTTTTAGCGGAGTCACCTAGTGCAG”, with 8060 fluorescence intensity (a.u.). In the case of “GGCGAGGGGCTCATGGCCGCCGCCTGAGGTGGGGTGGCGGCGGAGTCACCTAGTGCAG”, the binding signal was 8870 fluorescence intensity (a.u.).

With “ACTAATGAACTGCAGTGTGACTTTTTTTGTTAGCTCAGCACGGAGTCACCTAGTGCAG”, the binding signal is 8780 fluorescence intensity (a.u.). Then “CTATTCAATTTTAACTCATTGATCTCACATATTAGTTTTTCGGAGTCACCTAGTGCAG”, with 8380 fluorescence intensity (a.u.). The same measure for “CGATCTCTTCTCTTCATCTCCAGTGTAAAGCTTTTTTGACCGGAGTCACCTAGTGCAG”: 8020 fluorescence intensity (a.u.). Then “GCGCTGCACTGTTCCTCTGTCTGTCAGTCACTTGCGCTGTCGGAGTCACCTAGTGCAG”, with 9720 fluorescence intensity (a.u.); and “GGATTTTAAGTTTTTACTTGCACTGTTTGACCATTCGTCTCGGAGTCACCTAGTGCAG”, with 9200 fluorescence intensity (a.u.).

Consider “TTAAGTAATCAGCACATCATCACTGCATAATTATTGCCATCGGAGTCACCTAGTGCAG”, for which the binding signal is 8590 fluorescence intensity (a.u.). Then “GACATGTAGGGTCCATGTGGATCGCACGTTGACTCAGCCGCGGAGTCACCTAGTGCAG”, with 8620 fluorescence intensity (a.u.); and “CGTGCAGCTGTCAAACGCTTTCAATCTGGCGGGGTTTATTCGGAGTCACCTAGTGCAG”, with 12600 fluorescence intensity (a.u.); and “ATATGTTTGTTTTGCATTGAAAATATTGCTATATTTTTCTCGGAGTCACCTAGTGCAG”, with 9220 fluorescence intensity (a.u.). The same measure for “TTCTACGCACAGCTTCGATTAATTACCACTTTTCTCGTATCGGAGTCACCTAGTGCAG”: 8080 fluorescence intensity (a.u.); for “CAATGTTGTCGGCAACGCCGCAGCCGAGCAGCCTGCATCCCGGAGTCACCTAGTGCAG”: 8660 fluorescence intensity (a.u.); for “TCCTCTCTGGTTGGTTTAGTTCTTGTGATTTAATCTTACACGGAGTCACCTAGTGCAG”: 9700 fluorescence intensity (a.u.). Take “AATAATAAGAACGGTCAAACATATGCTAAAAAGTCAACGGCGGAGTCACCTAGTGCAG”: the binding signal was 11500 fluorescence intensity (a.u.).

These data come from paper PMC7819943, “Rice protein-binding microarrays: a tool to detect cis-acting elements near promoter regions in rice”.
